At least one compound was matched to its structure with a doubt left. Some of these results come from one statement about several compounds together.
Experiments:
A498 ccRCC xenografts = experiment: A498 ccRCC subcutaneous xenograft study; details: upon study completion, four weeks; A939572 30 mg/kg oral twice daily, Tem 10 mg/kg ip every 72 hrs
[1] = test system: Caki1 and A498 cell lines; experiment: Combinatorial proliferation assay of TKIs with A939572; assay type: cell-based, human; details: dosed in combination with A939572 up to approximately the IC50 dose for each drug

Row | Compound | reduction in tumor volume vs. placebo control (A498 ccRCC xenografts) | synergy in cell proliferative response with A939572 [1]
1 | CNC(=O)c1cccc(NC(=O)N2CCC(Oc3ccccc3Cl)CC2)c1 [A939572] | 20-30% | –
2 | CO[C@H]1C[C@@H]2CC[C@@H](C)[C@@](O)(O2)C(=O)C(=O)N2CCCC[C@H]2C(=O)O[C@H]([C@H](C)C[C@@H]2CC[C@@H](OC(=O)C(C)(CO)CO)[C@H](OC)C2)CC(=O)[C@H](C)/C=C(\C)[C@@H](O)[C@@H](OC)C(=O)[C@H](C)C[C@H](C)/C=C/C=C/C=C/1C [Temsirolimus, temsirolimus] | 20-30% | –
3 | CCN(CC)CCNC(=O)c1c(C)[nH]c(/C=C2\C(=O)Nc3ccc(F)cc32)c1C [sunitinib] | – | No synergy

Source: US10160972B2, “Methods and materials for treating cancer” (Mayo Foundation for Medical Education and Research, priority 2012, dated 2018)
